According to publication PMC4689212:
These are yes or no findings as the source states them, for the method shown. In cells and extracts the contact can be indirect. Binding calls can cover weak binding; strength is not graded here.

By UniProt entry, the sequences of proteins in these tests, tags left out. Residues count along the entry.
UniProt P26012, residues 43-769: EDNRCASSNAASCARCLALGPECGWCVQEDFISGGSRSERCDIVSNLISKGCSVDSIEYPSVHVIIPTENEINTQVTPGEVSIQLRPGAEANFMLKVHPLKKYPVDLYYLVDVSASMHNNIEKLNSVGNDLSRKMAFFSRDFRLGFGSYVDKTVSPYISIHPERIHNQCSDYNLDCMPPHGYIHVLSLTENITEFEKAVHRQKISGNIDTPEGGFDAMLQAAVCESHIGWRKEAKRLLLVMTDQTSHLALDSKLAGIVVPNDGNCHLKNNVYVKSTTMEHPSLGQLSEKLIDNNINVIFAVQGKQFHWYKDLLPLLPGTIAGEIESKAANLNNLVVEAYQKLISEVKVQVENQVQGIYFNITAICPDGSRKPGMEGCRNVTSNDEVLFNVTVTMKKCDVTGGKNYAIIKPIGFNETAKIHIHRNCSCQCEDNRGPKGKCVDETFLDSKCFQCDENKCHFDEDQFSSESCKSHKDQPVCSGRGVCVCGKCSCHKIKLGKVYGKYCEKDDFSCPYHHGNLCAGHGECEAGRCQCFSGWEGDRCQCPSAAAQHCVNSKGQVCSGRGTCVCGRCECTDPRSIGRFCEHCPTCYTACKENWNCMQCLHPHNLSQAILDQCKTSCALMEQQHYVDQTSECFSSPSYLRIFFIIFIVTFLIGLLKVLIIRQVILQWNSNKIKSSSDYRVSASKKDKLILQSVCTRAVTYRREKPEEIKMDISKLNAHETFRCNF

These substances were tested against V5-tagged human β8 integrin (human) (UniProt P26012) (assay: co-IP; HEK-293 cells co-transfected with Nrp1 (full-length rat or deletion constructs) and V5-tagged human β8 integrin; detergent-soluble lysates (RIPA) immunoprecipitated with anti-V5, immunoblotted with anti-Nrp1).

binding, binds:
Nrp1 deletion construct lacking the A domain (from UniProt Q9QWJ9) (receptor)
Nrp1 deletion construct lacking the B domain (from UniProt Q9QWJ9) (receptor)
Nrp1 deletion construct lacking the MAM domain (from UniProt Q9QWJ9) (receptor)
